According to patent US20150374853A1:
These are yes or no findings as the source states them, for the method shown. In cells and extracts the contact can be indirect. Here binding means that the protein was enriched with, or labelled near, the bait; the list need not be complete.

Key:
Clathrin = experiment: pull-down with biotinylated H10 peptide, mass spectrometry; 'potential binding partners'
REB35 = experiment: as above

binding (Clathrin): binds
binding (REB35): binds
Binder: TNSIWYTAPYMF (biotinylated (position of the biotin not stated)) [H10 peptide, biotinylated version]
